# According to PubChem BioAssay AID493014 (National Center for Advancing Translational Sciences (NCATS), 2011):
# In all, about 340,000 compounds went through this assay and about 170 (0.05%) were called active. This list was built around the results that the source calls inconclusive (neither active nor inactive); the mix of calls is not that of the screen. The call rests on the fitted dose curve; in most records, active means well fitted inhibition curve with a large enough effect in the signal ratio, with a control signal flat (not every such curve was filed as active); inconclusive means small, poorly fitted or top-dose-only effect, or effect the other way, or a change in a side signal; inactive means flat fitted curve, though single readings scatter; the % refers to the signal ratio. A potency beside an inconclusive call is a rough fit, not a confirmed value.
# Experiment: qHTS Assay to Find Inhibitors of Chronic Active B-Cell Receptor Signaling;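 on activity change, negative = inhibition: plate controls were basal doxycycline-induced cells for no effect and cells given 10 µM MG132 for full effect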
# Conditions: ABC-DLBCL IkBa-CBG/CBR reporter, luminescence ratio (green luciferase fused to IkBa over red control in TMD8 lymphoma cells), 4 h; activity change, negative = inhibition: at 46.1 µM (top of the series)
# How it was run: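 Concentration-response series (up to 46 uM) were applied to TMD8 dual-reporter cells for 4 h at 37C with doxycycline. Green/red ratio, after filter-overlap correction, defined %Activity; red signal alone was normalised to basal cells and zero luminescence.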
# Potency means the concentration at half of the fitted maximal effect.
SMILES,"activity change, negative = inhibition",Potency
Cc1cc(NC(=O)CSCC(=O)N2CCN(c3ccccc3)CC2)no1,inactive,
N=c1sccn1CC(=O)Nc1cc(Cl)ccc1Oc1ccccc1,inconclusive: -23.3%,
CC(=O)NC1(C(Cl)(Cl)Cl)Oc2ccccc2O1,,"inconclusive: 35.5 µM [falling, single point]"
O=C1N=C(N2CCCC2)S/C1=C\c1cccc(Br)c1,inconclusive: 11.5%,
CCOc1ccc(OCC(=O)Nc2ccc(S(N)(=O)=O)cc2)cc1,inactive,
COc1ccccc1-c1c(C)nn2c(C)c(C(C)=O)cnc12,inconclusive: 9.08%,
CCN(CC)CCOC(=O)C(c1ccccc1)c1ccccc1,,"inconclusive: 3.55 µM [falling, single point]"
C/C(=N\NC(=O)c1cccc(N/N=C(\C)c2ccco2)c1)c1ccco1,inconclusive: -8.23%,
COC(=O)C1=C(C)N(C)C(=O)NC1c1cc(Cl)cc(Cl)c1OC (configuration not stated),,"inconclusive: 11.6 µM [falling, partial curve]"
CC(=O)Nc1ccc(C2=NN(c3ccccc3)C(c3cccs3)C2)cc1 (configuration not stated),inconclusive: -1.43%,
CCCC(=O)c1ccc(N2CCN(C(=O)c3ccccc3Br)CC2)c(F)c1,inactive,
COc1ccc(OC)c(Nc2nc(=O)c3cccnc3s2)c1,,"inconclusive: 15.8 µM [falling, partial curve, poor fit]"
CC1CCC/C=C/C(=O)c2c(O)cc(O)cc2CC(=O)O1 (configuration not stated),inconclusive: -0.553%,
CCCN(CCC)S(=O)(=O)c1ccc(C(=O)Nc2nnc(-c3cc(OC)cc(OC)c3)o2)cc1,inconclusive: -5.69%,
CC1(C)Oc2ccc3ccc(=O)oc3c2/C(=C/N)C1=O,,"inconclusive: 20 µM [falling, partial curve, poor fit]"
Nc1nc2ccc(S(=O)(=O)c3ccc4nc(N)sc4c3)cc2s1,,"inconclusive: 25.1 µM [falling, single point]"
COC(=O)c1[nH]c(C)c(/C(O)=C2\C(=O)C(=O)N(CCN3CCOCC3)C2c2cccnc2)c1C (configuration not stated),inconclusive: 5.14%,
Cc1cc(C)c(OCC(=O)OCC(=O)NC2CCCCCCC2)c(C)c1,inconclusive: 12.4%,
Cc1nc(CSc2nsc(C)c2C#N)cs1,inconclusive: 1.15%,
Cc1cccc(OCC(=O)NNC(=O)CCCCC(=O)NNC(=O)COc2cccc(C)c2)c1,inactive,
CCC1CCC(C(=O)NC(C(=O)NCCc2ccc(S(N)(=O)=O)cc2)C(C)C)CC1 (configuration not stated),inactive,

SMILES,"activity change, negative = inhibition",Potency
Cc1ccc(-n2nc3c(N4CCC(C(=O)NCc5ccccc5C)CC4)nnc(C)c3c2C)cc1,inconclusive: 10.4%,
CCN(CC)c1ccc(C=N/C(C#N)=C(\N)C#N)cc1,inactive,
N#C/C(=N\Nc1ccc(S(=O)(=O)N2CCCCC2)cc1)C(N)=S,inconclusive: 13.6%,
O=C(NCC1CCCO1)c1cc(-c2ccncc2)nc2ccc(S(=O)(=O)N3CCOCC3)cc12 (configuration not stated),inconclusive: -3.48%,
CCOc1cccc(C(=O)Nc2nc(-c3ccc(S(=O)(=O)N4CCOCC4)cc3)cs2)c1,inactive,
CC(C)CCOC(=O)C[N+](C)(C)CCOC1CC2CCC1(C)C2(C)C (configuration not stated),inconclusive: -0.002%,
Cc1ccc2[nH]c(O)c(N=Nc3nc4ccccc4s3)c2c1,inactive,
CCN(CC)C(=O)C1CCCN(C/C=C/c2ccccc2)C1 (configuration not stated),,"inconclusive: 18.4 µM [falling, partial curve]"
COc1ccc(CC(=O)Nc2ccc(-c3nnc(-c4ccccc4)o3)cc2)cc1OC,,"inconclusive: 0.0366 µM [falling, full curve, poor fit]"
CCOC(=O)C(Sc1ncc(C#N)c(N)n1)C(C)C (configuration not stated),inconclusive: 7.42%,
O=C1C(=O)N(CCCN2CCOCC2)C(c2ccc([N+](=O)[O-])cc2)/C1=C(/O)c1ccc2c(c1)OCO2 (configuration not stated),inactive,
CCn1ccc2c(OCC(=O)Nc3ccc(C)c(Cl)c3)cccc2c1=O,inconclusive: -13.9%,
COc1cccc(N2CCN(C(=O)CCSCc3ccccc3F)CC2)c1,inactive,
COc1ccc2oc(=O)c(/C(N)=N/NC(=O)c3ccncc3)cc2c1,inactive,
Cc1csc2sc(-c3ccnc(SCC(=O)NCc4ccccc4)n3)c(C)c12,inconclusive: -6.04%,
CCc1ccc2[nH]c(=O)c(CN(Cc3ccccc3OC)Cc3nnnn3Cc3ccco3)cc2c1,,"inconclusive: 18.4 µM [falling, partial curve, poor fit]"
COc1ccc(-n2ncc3c(NCc4cccs4)ncnc32)cc1,inconclusive: 0.837%,
COc1ccc(C(CNC(=O)c2cccc(NC(=O)c3cccs3)c2)N2CCCC2)cc1 (configuration not stated),,"inconclusive: 16.4 µM [falling, single point]"
CC(C(=O)NC1CCCc2ccccc21)N1CCN(c2ccc(F)cc2)CC1 (configuration not stated),inactive,
COc1ccc(/C=C2\C(=O)NCC(=O)N2C)cc1,inconclusive: 2.7%,
Cc1nc(N2CCC(C)CC2)c2c(C)c(C(=O)Nc3cccc(C(F)(F)F)c3)sc2n1,inactive,

# Arranged by number of heavy atoms (falling): some entries from above.
SMILES,"activity change, negative = inhibition",Potency
CCc1ccc2[nH]c(=O)c(CN(Cc3ccccc3OC)Cc3nnnn3Cc3ccco3)cc2c1,,"inconclusive: 18.4 µM [falling, partial curve, poor fit]"
Cc1ccc(-n2nc3c(N4CCC(C(=O)NCc5ccccc5C)CC4)nnc(C)c3c2C)cc1,inconclusive: 10.4%,
Cc1cccc(OCC(=O)NNC(=O)CCCCC(=O)NNC(=O)COc2cccc(C)c2)c1,inactive,
CCOc1cccc(C(=O)Nc2nc(-c3ccc(S(=O)(=O)N4CCOCC4)cc3)cs2)c1,inactive,
Cc1nc(N2CCC(C)CC2)c2c(C)c(C(=O)Nc3cccc(C(F)(F)F)c3)sc2n1,inactive,
CCC1CCC(C(=O)NC(C(=O)NCCc2ccc(S(N)(=O)=O)cc2)C(C)C)CC1 (configuration not stated),inactive,
Cc1csc2sc(-c3ccnc(SCC(=O)NCc4ccccc4)n3)c(C)c12,inconclusive: -6.04%,
COc1cccc(N2CCN(C(=O)CCSCc3ccccc3F)CC2)c1,inactive,
CCn1ccc2c(OCC(=O)Nc3ccc(C)c(Cl)c3)cccc2c1=O,inconclusive: -13.9%,
CC(C)CCOC(=O)C[N+](C)(C)CCOC1CC2CCC1(C)C2(C)C (configuration not stated),inconclusive: -0.002%,
COc1ccc(-n2ncc3c(NCc4cccs4)ncnc32)cc1,inconclusive: 0.837%,
N#C/C(=N\Nc1ccc(S(=O)(=O)N2CCCCC2)cc1)C(N)=S,inconclusive: 13.6%,
CCN(CC)C(=O)C1CCCN(C/C=C/c2ccccc2)C1 (configuration not stated),,"inconclusive: 18.4 µM [falling, partial curve]"
CCN(CC)c1ccc(C=N/C(C#N)=C(\N)C#N)cc1,inactive,
CCOC(=O)C(Sc1ncc(C#N)c(N)n1)C(C)C (configuration not stated),inconclusive: 7.42%,
COc1ccc(/C=C2\C(=O)NCC(=O)N2C)cc1,inconclusive: 2.7%,
Cc1nc(CSc2nsc(C)c2C#N)cs1,inconclusive: 1.15%,

# The list continues:

SMILES,"activity change, negative = inhibition",Potency
Cc1cc(C)cc(NC(=O)CSc2nc3c(oc4ccccc43)c(=O)n2-c2ccccc2)c1,inconclusive: 17.3%,
CCN(CC)C(=O)c1sc2c(c1C)c(=O)n(CCc1ccccc1)c(=O)n2Cc1ccc(C)cc1,,"inconclusive: 14.1 µM [rising, single point]"
COc1ccc(CCNC(=O)Cc2ccc(OCc3ccccc3)c(OC)c2[N+](=O)[O-])cc1OCc1ccccc1,,"inconclusive: 29.1 µM [rising, single point]"
O=C(O)c1ccc(-c2ccc(/C=C3\NC(=O)N(Cc4ccc(Cl)cc4)C3=O)o2)cc1Cl,inactive,
CN(CCCC(=O)Nc1ccncc1)S(=O)(=O)c1ccc(Cl)cc1,inconclusive: -3.24%,
N#CCCN(C(=O)COC(=O)CNC(=O)c1ccc(-c2ccccc2)cc1)c1ccc(F)cc1,inconclusive: -9.02%,
C/C(=N\OCC(=O)NCC(F)(F)F)c1cc2ccccc2o1,inconclusive: 1.65%,
CCOc1ccc(S(=O)(=O)Nc2nc3ccccc3nc2N2CCN(C)CC2)cc1,inactive,
O=C(CSc1nc(-c2ccco2)cc(C(F)(F)F)n1)Nc1ccc(C(=O)N2CCCCC2)cc1,inactive,
CN(C)P(=O)(Nc1cccc2ccccc12)Nc1cccc2ccccc12,inactive,
CC(=O)N(CC1CCCO1)C1(C(=O)NC2CCCC2)CCCCC1 (configuration not stated),inconclusive: -13.3%,
CC(=O)NCCc1ccc(S(=O)(=O)Nc2ccc(NC(=O)c3ccc(F)cc3)cc2)cc1,inactive,
CC(=O)Nc1ccc(S(=O)(=O)N2CCN(c3nc(NC4CCCC4)c4ccccc4n3)CC2)cc1,inactive,
COC(=O)C1=C(COc2ccc(C=O)cc2OC)NC(=O)NC1c1cc(C)ccc1C (configuration not stated),inconclusive: -1.27%,
COc1ccc(NS(=O)(=O)c2cccc(NC(=O)NCCCl)c2)cc1,inconclusive: 2.42%,
O=C(Nc1nccs1)c1ccccn1,inactive,
Brc1cccc(-c2n[nH]c(-c3ccccc3)n2)c1,,"inconclusive: 18.4 µM [falling, partial curve]"
O=C(c1ccc(Cn2c(=S)[nH]c3cc4c(cc3c2=O)OCO4)cc1)N1CCN(c2ncccn2)CC1,inconclusive: -2.24%,
COc1ccc(Nc2nc(-c3sc(NC(C)=O)nc3C)cs2)cc1,,"inconclusive: 18.4 µM [falling, partial curve]"
O=C(COC(=O)CCC1CCCC1)Nc1nc2c(F)c(F)c(F)cc2s1,inconclusive: 16.4%,
CC1CCN(c2ccc3c(c2)S(=O)(=O)c2cccc(C(=O)NC[C@@H]4CCCO4)c2C3=O)CC1,inactive,

# Not a retest: 2 of the compounds above.
SMILES,"activity change, negative = inhibition",Potency
CN(C)P(=O)(Nc1cccc2ccccc12)Nc1cccc2ccccc12,inactive,
CC(=O)N(CC1CCCO1)C1(C(=O)NC2CCCC2)CCCCC1 (configuration not stated),inconclusive: -13.3%,

# Following part:

SMILES,"activity change, negative = inhibition",Potency
OC(CCN1CCCCC1)c1ccc(-c2ccccc2)cc1 (configuration not stated),inconclusive: -0.866%,
CCOC(=O)c1[nH]ncc1CN1CCN(Cc2ccc(C)cc2)C(CCO)C1 (configuration not stated),inconclusive: -5.26%,
CCN(CC)c1ccc(C(=O)Nc2ccccc2)cc1[N+](=O)[O-],inactive,
C[C@@H](C(=O)N1CCN(c2ccccc2)CC1)N1C(=O)C2CC=CCC2C1=O (some centres not stated),inconclusive: 1.92%,
CCNC(=S)N/N=C(\C)c1ccc2c(c1)OCCO2,,"inconclusive: 16.4 µM [cytotoxic, single point]"
Cc1nc(CCNC(=O)CC2C(=O)NCCN2Cc2ccc(F)cc2)sc1C (configuration not stated),inconclusive: -16.2%,
CC(OC(=O)CCCN=C1NS(=O)(=O)c2ccccc21)C(=O)Nc1ccccc1[N+](=O)[O-] (configuration not stated),inactive,
COc1ccccc1NC(=O)/C=C\c1ccco1,,"inconclusive: 12.6 µM [falling, partial curve]"
Cc1cccc(NNC(=O)C(=O)NNc2cccc(C)c2)c1,inconclusive: -1.17%,
NC(=S)N/N=C/c1ccc(-c2cc(Cl)ccc2Cl)o1,,"inconclusive: 16.4 µM [falling, single point]"
CCOC(=O)c1ccc(N=c2scc(C)n2CC)cc1,inconclusive: 9.89%,
CN(C)c1ccc(C(=O)OCc2ccc(Br)cc2)cc1,inconclusive: 26.7%,
Cc1cc(C(=O)COC(=O)/C=C/c2cccc(Br)c2)c(C)n1C,inactive,
CCOC(=O)c1sc(Nc2nc3c(OC)cccc3s2)nc1C,inconclusive: -21%,
COc1cc(/C=C/C(=O)NCc2ccccn2)cc(OC)c1OC,inconclusive: -6.11%,
CCOc1ccc(CN(C)CCc2ccccn2)cc1,inactive,
Nc1ccc2c3c(cccc13)CC2,,"inconclusive: 22.4 µM [falling, single point]"
CCn1ncc(/C=N\NC(=O)c2ccc3c(c2)c(C)c(C)n3Cc2ccccc2)c1C,inconclusive: 8.11%,
COCCCn1c(SCC(=O)NC2CCCC2)nnc1-c1ccco1,inconclusive: 1.58%,
